No constants are given. Whether binding was seen depends on the method and setting.
Target: 6x-histidine (6xHIS) tagged Mpt64 (Mycobacterium tuberculosis) (UniProt P9WIN9)
Experiment: pull-down

Protein sequences, listed by entry. Tags and fused reporters are not part of them. Residues count along the entry.
UniProt P9WIN9, residues 24-228: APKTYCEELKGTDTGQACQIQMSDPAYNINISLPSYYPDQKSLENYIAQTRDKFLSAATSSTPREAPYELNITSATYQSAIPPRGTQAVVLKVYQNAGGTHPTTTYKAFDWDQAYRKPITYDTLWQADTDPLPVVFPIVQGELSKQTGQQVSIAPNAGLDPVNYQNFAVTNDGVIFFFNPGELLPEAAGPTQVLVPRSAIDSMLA

For “hen egg white lysozyme (from UniProt P00698 19-147) (enzyme)”, the binding was “no binding (tested: 1mg/mL)”.

B1: human lysozyme (enzyme, UniProt P61626 19-148)
chain: KVFERCELARTLKRLGMDGYRGISLANWMCLAKWESGYNTRATNYNAGDRSTDYGIFQINSRYWCNDGKTPGAVNACHLSCSALLQDNIADAVACAKRVVRDPQGIRAWVAWRNRCQNRDVRQYVQGCGV
For B1, the binding was “no binding (tested: 1mg/mL)”.

— paper doi:10.1101/402099
